Some of the results follow. The main result of the screen is listed elsewhere. These columns were measured beside it and carry no call. Most of these compounds were active or inconclusive in the main read-out, so they are no random draw. Words in brackets tell the shape of the fitted curve; partial curves, single points and poor fits give uncertain potencies.
Test: qHTS Assay for Modulators of Lamin A Splicing
Settings: HeLa LMNA splicing GFP/RFP minigene ratio, 48 h
Outline: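 S3 HeLa cells stably expressing lamin A-EGFP splicing minigene plus DsRed2, 600 cells/well, 48 h compound exposure at 37C. Laser-scanning cytometry; analysed as GFP (500-530 nm)/RFP (575-640 nm) total intensity ratio; 0.5% DMSO vehicle.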

[1] = measured here: GFP splicing reporter channel
[2] = measured here: RFP viability control channel

Compound: COc1ccc(NC(=S)N(CCc2c(C)[nH]c3ccc(C)cc23)Cc2ccco2)cc1
- AC50 [1]: 7.08 µM [rising, partial curve]
- AC50 [2]: 10 µM [rising, partial curve]

Compound: C=CCc1ccc(OCCOc2cccc3ccc(C)nc23)c(OC)c1
- AC50 [1]: 0.251 µM [falling, single point]

Compound: COc1ccc2c(c1)oc(=O)c1ccccc12
- AC50 [1]: 14.1 µM [falling, partial curve, poor fit]
- AC50 [2]: 39.8 µM [falling, partial curve, poor fit]

Compound: C(=N\Nc1nc(-c2ccccc2)cs1)/c1cccs1
- AC50 [2]: 3.16 µM [rising, single point]

Compound: CC(C)(C)NC(=O)c1cnn2c(C(F)F)cc(-c3ccccc3)nc12
- AC50 [1]: 3.55 µM [rising, single point]
- AC50 [2]: 2.82 µM [rising, single point]

Compound: S=C(NCc1ccco1)N/N=C/c1ccc(Cl)cc1
- AC50 [1]: 11.2 µM [rising, single point]
- AC50 [2]: 17.8 µM [rising, single point]

Compound: N#Cc1ccccc1NC(=O)C(=O)NCC(c1ccc2c(c1)OCO2)N1CCN(c2ccccc2)CC1 (stereo unspecified)
- AC50 [1]: 0.891 µM [falling, full curve, poor fit]
- AC50 [2]: 0.708 µM [falling, partial curve, poor fit]

Compound: Cc1cc(Cl)ccc1OC(C)C(=O)N1CCCN(C(=O)C(C)Oc2ccc(Cl)cc2C)CC1 (stereo unspecified)
- AC50 [1]: 8.91 µM [rising, partial curve]
- AC50 [2]: 11.2 µM [rising, partial curve]

Compound: O=C(Nc1ccc2nc(SCC(=O)N3CCCc4ccccc43)sc2c1)c1ccc(F)cc1
- AC50 [1]: 4.47 µM [falling, full curve]
- AC50 [2]: 11.2 µM [falling, partial curve, poor fit]

Compound: COC(=O)c1cc(NCc2ccccc2F)ccc1N1CCOCC1
- AC50 [1]: 12.6 µM [rising, single point]

Compound: Cc1ccc(CNc2ncnc3c2cnn3-c2ccccc2)cc1
- AC50 [2]: 10 µM [falling, single point]

Compound: COc1ccc2nc(/C=N/NC(=O)[C@H](CCSC)NC(=O)OC(C)(C)C)ccc2c1
- AC50 [2]: 12.6 µM [rising, single point]

Compound: O=C(c1nn2c(C(F)(F)F)cc(-c3ccc(F)cc3)nc2c1Cl)N1CCOCC1
- AC50 [1]: 20 µM [rising, single point]

Compound: CCCC1(C(=O)OCC)NC(c2ccc(N(C)C)cc2)C2C(=O)N(c3ccc(OCC)cc3)C(=O)C21 (stereo unspecified)
- AC50 [2]: 4.47 µM [rising, partial curve, poor fit]
